# Results reported in article PMC8315004, “Discovery of Small-Molecule Inhibitors of SARS-CoV-2 Proteins Using a Computational and Experimental Pipeline” (Frontiers in Molecular Biosciences, 2021).
# Key:
# VSV-SARS2 = format: cell-based; conditions: read-out: IC50 against VSV-SARS2
# [1] = system: SARS-CoV-2 expressing the mNeon reporter gene; format: cell-based; conditions: read-out: IC50 against SARS-CoV-2
structure (smiles),measurement,setting,value
Cc1ccc(NC(=O)c2ccc(CN3CCN(C)CC3)cc2)cc1Nc1nccc(-c2cccnc2)n1 [Imatinib],IC50,VSV-SARS2,6.9 µM
same,IC50,[1],12.8 µM
